Record: PubChem BioAssay AID720505 (Drosophila RNAi Screening Center, 2013)
Screen: 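Fly regulators or components of the CRAC channel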 (primary screen). System: Drosophila S2R+ cells. Knock-down reagent: long dsRNA against Drosophila genes. Conditions: thapsigargin (2 µM) in calcium-free buffer to empty internal stores, then 2 mM calcium added back. Read-out: 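Fluo-4 signal in 384-well plates read on a FLIPR after thapsigargin (2 µM, calcium-free) store depletion and 2 mM calcium add-back; unnormalised mean endpoint per well; screen run twice, selected wells retested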. Scale: calcium signal and retest calcium signal: higher = more calcium entry after store depletion. Rule for the call: 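Knock-downs counted as hits when calcium entry dropped relative to STIM1 positive and Rho1 negative controls present on each plate; roughly 1500 genes called, with reductions of differing size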. Meaning of the calls: active = called as lowering calcium entry; inactive = not called.
The screen tested about 20,000 reagents; this is a random part of those that have a named target and a result. Of all reagents, about 2,100 (10%) are marked active. 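Raw plate signals without normalisation; calls rest on control-based scores that were not deposited; replicate 2 separates called from uncalled poorly.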 Unmarked entries are inactive. The numbers tell different reagents against one gene apart. The record does not give: the amount of reagent, the time to read-out.

With sas, what was measured?
calcium signal, replicate 1: 122; calcium signal, replicate 2: 150

Which result is listed for GC2?
calcium signal, replicate 1: 177; calcium signal, replicate 2: 84.8

For X11L #1, what was measured?
calcium signal, replicate 1: 149; calcium signal, replicate 2: 132; retest calcium signal, replicate 1: 123; retest calcium signal, replicate 2: 119

For X11L #2, what was measured?
calcium signal, replicate 1: 117; calcium signal, replicate 2: 82.7

With CG13443, how do the results read?
calcium signal, replicate 1: 61.4; calcium signal, replicate 2: 109

What is on record for Tim9a?
calcium signal, replicate 1: 138; calcium signal, replicate 2: 108

For CR30029, what was measured?
calcium signal, replicate 1: 109; calcium signal, replicate 2: 133

For TwdlX, how do the results read?
calcium signal, replicate 1: 88.3; calcium signal, replicate 2: 123

What is on record for CG11598?
calcium signal, replicate 1: 71.3 (active); calcium signal, replicate 2: 168

With CG6707, what was measured?
calcium signal, replicate 1: 103; calcium signal, replicate 2: 106

With NKCC #1, what was measured?
calcium signal, replicate 1: 98.1; calcium signal, replicate 2: 89.8

Which result is listed for NKCC #2?
calcium signal, replicate 1: 171; calcium signal, replicate 2: 169

For Datp, what does the deposit list?
calcium signal, replicate 1: 192; calcium signal, replicate 2: 151

What did the screen give for slp2?
calcium signal, replicate 1: 185; calcium signal, replicate 2: 76.2

Single entries from the entries so far:
CG13443, calcium signal, replicate 1: 61.4
CG11598, calcium signal, replicate 2 → 168 (active)

More entries follow:
For twy, what does the deposit list?
calcium signal, replicate 1: 46.1; calcium signal, replicate 2: 88.6

What did the screen give for CG14995 #1?
calcium signal, replicate 1: 82.1; calcium signal, replicate 2: 91.5

With CG14995 #2, how do the results read?
calcium signal, replicate 1: 133; calcium signal, replicate 2: 141

With CG2129, what was measured?
calcium signal, replicate 1: 91.2; calcium signal, replicate 2: 71.9

With Bap60, how do the results read?
calcium signal, replicate 1: 163; calcium signal, replicate 2: 154

For PolE2, what does the deposit list?
calcium signal, replicate 1: 93.7; calcium signal, replicate 2: 105

With CG14410, how do the results read?
calcium signal, replicate 1: 122; calcium signal, replicate 2: 87.6

What is on record for Ref2?
calcium signal, replicate 1: 73.7 (active); calcium signal, replicate 2: 126

With Ipp, what was measured?
calcium signal, replicate 1: 94.7; calcium signal, replicate 2: 139

With Ndae1 #1, what was measured?
calcium signal, replicate 1: 57.1 (active); calcium signal, replicate 2: 88

For Ndae1 #2, what does the deposit list?
calcium signal, replicate 1: 116; calcium signal, replicate 2: 210

Which result is listed for retm?
calcium signal, replicate 1: 108; calcium signal, replicate 2: 217

How did the screen score Fancl?
calcium signal, replicate 1: 50.7 (active); calcium signal, replicate 2: 73.5

With Polr3F, what does the deposit list?
calcium signal, replicate 1: 174; calcium signal, replicate 2: 192
